# Experimental data published in the supplement of paper PMC8728848.
# The list shows a part of the results.
# B1: GS7807Q-bfa-507-19-507 (Bacteroides fragilis) (protein)
# chain: ASCNKFDDLNTNPDAATKVTAPMLATKLILNITQQGSAKNFVYHSMLSKQIAWSENASDEQYNLFGRTDFDGYTILTNCQKMVDAANEGDKDSYAALAKFMKAYKLFYKSLEVGDIPYSDALKGEEGVQKPKYDTQKEVMRQVLEDLEEAYTLFSSGSDFDGDPIFGGDTENWKKTVVAFELKVLTHLCKKDTDADLKVKERFARLVSSGSLMTSNADNFQLVYSNKAGQLYPFYYTQNKHSDYLMMSSVIIDNLKKFNDYRMFYYASPAKAQTDKGIKDSEWDAYLSIDPSDSYSNISVLYGKGEFCLANLRYTRVPEGEPLMRLSYAEQNFILAEGAVRGWISEDASTYYKKGIEASMNFIADNTPDKEEYTHGRTITQEYIQEYLAQPVIQLSGDKEKDLEMILLQRYLASFLQHPYDAYYDYRRTGYPVLPINPSTNLNTEKNKIPTRWMYPEAEFSYNPDNANEAVQRQYNGSDDVNKLMWILQ
# What was measured:
# Assay in all cases: glycan array binding signal (z-score within array); higher = stronger binding
# Settings in all cases: glycan notation: IUPAC condensed, linker removed
# [1] = molecular target: Fuc(a1-2)Gal(b1-4)GlcNAc(b1-3)Gal(b1-4)GlcNAc(b1-3)Gal(b1-4)GlcNAc
# How it was run: (§1)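 Glycan array data came from 3228 arrays in the Consortium for Functional Glycomics database, and only arrays with an available protein sequence were kept. Glycan names were put into IUPAC-condensed notation, and columns mapping to the same glycan were averaged. The binding signal is a within-array Z-score, averaged across arrays of one protein sequence run at different concentrations or buffers and across linkers. A negative Z-score can be read as non-binding.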
# [2] = molecular target: Fuc(a1-2)Gal(b1-4)GlcNAc(b1-3)GalNAc
# How it was run: as §1
# [3] = molecular target: Fuc(a1-2)Gal(b1-4)GlcNAc(b1-3)[Fuc(a1-2)Gal(b1-4)GlcNAc(b1-6)]GalNAc
# How it was run: as §1
# [4] = molecular target: Fuc(a1-2)Gal(b1-4)GlcNAc(b1-3)[Fuc(a1-3)[Gal(b1-4)]GlcNAc(b1-6)]Gal(b1-4)Glc
# How it was run: as §1
# [5] = molecular target: Fuc(a1-2)Gal(b1-4)GlcNAc(b1-6)GalNAc
# How it was run: as §1
# [6] = molecular target: Fuc(a1-2)Gal(b1-4)GlcNAc6S
# How it was run: as §1
# [7] = molecular target: Fuc(a1-2)Gal(b1-4)[Fuc(a1-3)]GlcNAc
# How it was run: as §1
# [8] = molecular target: Fuc(a1-2)Gal(b1-4)[Fuc(a1-3)]GlcNAc(b1-2)Man(a1-3)[Fuc(a1-2)Gal(b1-4)[Fuc(a1-3)]GlcNAc(b1-2)Man(a1-6)]Man(b1-4)GlcNAc(b1-4)[Fuc(a1-6)]GlcNAc
# How it was run: as §1
# [9] = molecular target: Fuc(a1-2)Gal(b1-4)[Fuc(a1-3)]GlcNAc(b1-2)[Fuc(a1-2)Gal(b1-4)[Fuc(a1-3)]GlcNAc(b1-4)]Man(a1-3)[Fuc(a1-2)Gal(b1-4)[Fuc(a1-3)]GlcNAc(b1-2)Man(a1-6)]Man(b1-4)GlcNAc(b1-4)GlcNAc
# How it was run: as §1
# [10] = molecular target: Fuc(a1-2)Gal(b1-4)[Fuc(a1-3)]GlcNAc(b1-3)Gal(b1-4)[Fuc(a1-3)]GlcNAc
# How it was run: as §1
# [11] = molecular target: Fuc(a1-2)Gal(b1-4)[Fuc(a1-3)]GlcNAc(b1-3)Gal(b1-4)[Fuc(a1-3)]GlcNAc(b1-3)Gal(b1-4)[Fuc(a1-3)]GlcNAc
# How it was run: as §1
# [12] = molecular target: Fuc(a1-2)Gal(b1-4)[Fuc(a1-3)]GlcNAc(b1-3)GalNAc
# How it was run: as §1
# [13] = molecular target: Fuc(a1-2)Gal(b1-4)[Fuc(a1-3)]GlcNAc(b1-3)[Neu5Ac(a2-6)Gal(b1-4)GlcNAc(b1-6)]Gal(b1-4)Glc
# How it was run: as §1
# [14] = molecular target: Fuc(a1-2)Gal3S(b1-4)GlcNAc
# How it was run: as §1
# [15] = molecular target: Fuc(a1-2)Gal6S(b1-3)GlcNAc
# How it was run: as §1
# [16] = molecular target: Fuc(a1-2)Gal6S(b1-3)GlcNAc6S
# How it was run: as §1
# [17] = molecular target: Fuc(a1-2)Gal6S(b1-4)Glc
# How it was run: as §1
# [18] = molecular target: Fuc(a1-2)Gal6S(b1-4)Glc6S
# How it was run: as §1
# [19] = molecular target: Fuc(a1-2)[Gal(a1-3)]Gal
# How it was run: as §1
# [20] = molecular target: Fuc(a1-2)[Gal(a1-3)]Gal(b1-3)GalNAc
# How it was run: as §1
# [21] = molecular target: Fuc(a1-2)[Gal(a1-3)]Gal(b1-3)GalNAc(b1-3)Gal(a1-4)Gal(b1-4)Glc
# How it was run: as §1
# [22] = molecular target: Fuc(a1-2)[Gal(a1-3)]Gal(b1-3)GlcNAc
# How it was run: as §1
# [23] = molecular target: Fuc(a1-2)[Gal(a1-3)]Gal(b1-3)GlcNAc(b1-2)Man(a1-3)[Fuc(a1-2)[Gal(a1-3)]Gal(b1-3)GlcNAc(b1-2)Man(a1-6)]Man(b1-4)GlcNAc(b1-4)GlcNAc
# How it was run: as §1
# [24] = molecular target: Fuc(a1-2)[Gal(a1-3)]Gal(b1-3)GlcNAc(b1-2)Man(a1-3)[Fuc(a1-2)[Gal(a1-3)]Gal(b1-3)GlcNAc(b1-2)Man(a1-6)]Man(b1-4)GlcNAc(b1-4)[Fuc(a1-6)]GlcNAc
# How it was run: as §1
# [25] = molecular target: Fuc(a1-2)[Gal(a1-3)]Gal(b1-3)GlcNAc(b1-3)GalNAc
# How it was run: as §1
# [26] = molecular target: Fuc(a1-2)[Gal(a1-3)]Gal(b1-3)GlcNAc(b1-6)GalNAc
# How it was run: as §1
# [27] = molecular target: Fuc(a1-2)[Gal(a1-3)]Gal(b1-4)Glc
# How it was run: as §1
# [28] = molecular target: Fuc(a1-2)[Gal(a1-3)]Gal(b1-4)GlcNAc
# How it was run: as §1
# [29] = molecular target: Fuc(a1-2)[Gal(a1-3)]Gal(b1-4)GlcNAc(b1-2)Man
# How it was run: as §1
# [30] = molecular target: Fuc(a1-2)[Gal(a1-3)]Gal(b1-4)GlcNAc(b1-2)Man(a1-3)[Fuc(a1-2)[Gal(a1-3)]Gal(b1-4)GlcNAc(b1-2)Man(a1-6)]Man(b1-4)GlcNAc(b1-4)GlcNAc
# How it was run: as §1
binder,measurement,setting,value
B1,glycan array binding signal (z-score),[1],-0.518
same,glycan array binding signal (z-score),[2],-0.41
same,glycan array binding signal (z-score),[3],0.43
same,glycan array binding signal (z-score),[4],0.636
same,glycan array binding signal (z-score),[5],4.43
same,glycan array binding signal (z-score),[6],-0.736
same,glycan array binding signal (z-score),[7],-0.981
same,glycan array binding signal (z-score),[8],0.717
same,glycan array binding signal (z-score),[9],0.484
same,glycan array binding signal (z-score),[10],-0.936
same,glycan array binding signal (z-score),[11],-0.232
same,glycan array binding signal (z-score),[12],1.5
same,glycan array binding signal (z-score),[13],0.368
same,glycan array binding signal (z-score),[14],-0.3
same,glycan array binding signal (z-score),[15],-0.23
same,glycan array binding signal (z-score),[16],1.53
same,glycan array binding signal (z-score),[17],0.351
same,glycan array binding signal (z-score),[18],0.919
same,glycan array binding signal (z-score),[19],-0.796
same,glycan array binding signal (z-score),[20],-0.033
same,glycan array binding signal (z-score),[21],0.019
same,glycan array binding signal (z-score),[22],0.16
same,glycan array binding signal (z-score),[23],-0.449
same,glycan array binding signal (z-score),[24],1.31
same,glycan array binding signal (z-score),[25],-0.929
same,glycan array binding signal (z-score),[26],-1.04
same,glycan array binding signal (z-score),[27],0.208
same,glycan array binding signal (z-score),[28],-0.556
same,glycan array binding signal (z-score),[29],-0.226
same,glycan array binding signal (z-score),[30],1.09

# Two entries picked at random from those above, as already listed:
binder,measurement,setting,value
B1,glycan array binding signal (z-score),[30],1.09
same,glycan array binding signal (z-score),[3],0.43
